Experimental findings from paper PMC4635569 are described below.

Sequences of proteins named here, by UniProt entry; tags and fusion partners are left off. A change or cut given only in a name is not applied to a line headed by its entry. A line that says so, or that is headed by a name, gives the form on record, which may keep a tag or linker. Residues count along the entry.
UniProt P01024, residues 1002-1303: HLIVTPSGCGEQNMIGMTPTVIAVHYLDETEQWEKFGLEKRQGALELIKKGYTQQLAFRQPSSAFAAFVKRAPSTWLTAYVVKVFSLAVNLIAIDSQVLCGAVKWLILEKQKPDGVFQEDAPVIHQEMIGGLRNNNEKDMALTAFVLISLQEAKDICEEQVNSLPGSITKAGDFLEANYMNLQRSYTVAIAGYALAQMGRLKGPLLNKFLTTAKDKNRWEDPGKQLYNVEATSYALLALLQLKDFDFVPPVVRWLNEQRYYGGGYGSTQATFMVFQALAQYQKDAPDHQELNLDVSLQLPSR
plasma-derived human complement factor H (P08603, residues 19-1231): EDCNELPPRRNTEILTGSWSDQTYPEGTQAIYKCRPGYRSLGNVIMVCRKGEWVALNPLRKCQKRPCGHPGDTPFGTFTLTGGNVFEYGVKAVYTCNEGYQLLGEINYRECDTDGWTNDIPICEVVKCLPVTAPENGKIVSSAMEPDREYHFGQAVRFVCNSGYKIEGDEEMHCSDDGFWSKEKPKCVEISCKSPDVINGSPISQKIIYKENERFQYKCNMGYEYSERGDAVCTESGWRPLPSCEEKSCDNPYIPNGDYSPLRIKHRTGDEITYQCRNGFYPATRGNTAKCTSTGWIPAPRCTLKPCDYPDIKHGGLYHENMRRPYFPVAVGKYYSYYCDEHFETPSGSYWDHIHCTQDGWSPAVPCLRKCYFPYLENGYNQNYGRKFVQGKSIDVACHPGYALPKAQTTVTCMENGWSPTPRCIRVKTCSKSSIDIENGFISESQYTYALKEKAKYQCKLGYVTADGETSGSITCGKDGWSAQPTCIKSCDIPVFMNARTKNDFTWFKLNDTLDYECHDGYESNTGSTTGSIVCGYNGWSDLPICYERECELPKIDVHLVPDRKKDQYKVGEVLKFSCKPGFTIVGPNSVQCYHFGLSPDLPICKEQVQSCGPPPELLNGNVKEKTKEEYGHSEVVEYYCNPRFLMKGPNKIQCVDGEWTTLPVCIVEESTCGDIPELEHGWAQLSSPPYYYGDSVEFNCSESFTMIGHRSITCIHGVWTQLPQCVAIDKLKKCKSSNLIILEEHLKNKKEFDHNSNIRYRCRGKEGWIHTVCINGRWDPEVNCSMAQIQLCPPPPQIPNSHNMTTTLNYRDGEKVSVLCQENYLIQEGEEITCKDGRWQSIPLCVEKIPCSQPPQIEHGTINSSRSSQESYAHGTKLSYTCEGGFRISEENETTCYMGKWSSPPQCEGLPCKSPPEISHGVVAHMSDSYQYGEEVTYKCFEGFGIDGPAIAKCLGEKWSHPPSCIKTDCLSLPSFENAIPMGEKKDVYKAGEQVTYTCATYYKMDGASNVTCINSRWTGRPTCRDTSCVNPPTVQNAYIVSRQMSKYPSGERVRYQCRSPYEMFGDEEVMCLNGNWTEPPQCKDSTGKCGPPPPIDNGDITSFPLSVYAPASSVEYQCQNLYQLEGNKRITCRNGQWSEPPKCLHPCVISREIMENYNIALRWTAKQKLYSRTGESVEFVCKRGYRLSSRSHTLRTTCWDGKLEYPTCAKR
recombinant FH(D1119G) (P08603, form named): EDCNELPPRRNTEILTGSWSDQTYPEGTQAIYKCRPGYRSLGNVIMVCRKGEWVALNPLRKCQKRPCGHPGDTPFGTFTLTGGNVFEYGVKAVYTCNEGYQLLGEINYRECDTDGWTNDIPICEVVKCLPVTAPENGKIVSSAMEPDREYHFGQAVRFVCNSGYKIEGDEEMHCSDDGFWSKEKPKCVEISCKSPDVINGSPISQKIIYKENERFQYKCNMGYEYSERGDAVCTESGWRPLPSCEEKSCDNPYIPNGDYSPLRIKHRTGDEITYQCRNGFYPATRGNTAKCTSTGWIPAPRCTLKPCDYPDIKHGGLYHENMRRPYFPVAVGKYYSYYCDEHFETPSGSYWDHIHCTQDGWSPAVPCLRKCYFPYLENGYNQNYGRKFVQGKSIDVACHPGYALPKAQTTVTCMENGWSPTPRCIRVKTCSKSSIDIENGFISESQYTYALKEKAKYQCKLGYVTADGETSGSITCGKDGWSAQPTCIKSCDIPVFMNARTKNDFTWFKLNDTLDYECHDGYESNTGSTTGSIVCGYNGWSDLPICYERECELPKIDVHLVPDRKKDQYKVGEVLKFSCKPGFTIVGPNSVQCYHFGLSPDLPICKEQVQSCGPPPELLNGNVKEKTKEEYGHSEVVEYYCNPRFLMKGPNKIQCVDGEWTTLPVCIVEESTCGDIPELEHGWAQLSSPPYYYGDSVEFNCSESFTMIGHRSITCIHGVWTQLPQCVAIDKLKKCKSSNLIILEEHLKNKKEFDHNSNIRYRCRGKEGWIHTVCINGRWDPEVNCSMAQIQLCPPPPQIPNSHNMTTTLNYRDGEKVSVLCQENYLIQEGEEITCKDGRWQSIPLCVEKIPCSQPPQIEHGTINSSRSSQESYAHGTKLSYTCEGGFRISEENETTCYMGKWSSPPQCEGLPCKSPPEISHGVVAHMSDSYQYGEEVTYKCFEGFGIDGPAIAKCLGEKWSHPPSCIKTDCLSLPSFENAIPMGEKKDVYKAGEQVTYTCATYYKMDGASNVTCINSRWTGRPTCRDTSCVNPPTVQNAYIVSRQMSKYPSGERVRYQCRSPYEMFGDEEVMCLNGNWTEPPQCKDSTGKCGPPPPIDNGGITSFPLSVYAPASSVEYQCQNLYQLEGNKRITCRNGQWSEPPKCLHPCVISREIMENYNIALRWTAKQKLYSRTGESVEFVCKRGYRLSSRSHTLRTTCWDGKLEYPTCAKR

The assay addresses human C3d (human) (UniProt P01024). The assay can be described thus: SPR; C3b (~250 RU) or C3d (~70 RU) amine coupled to adjacent flow cells of a Biacore C1 chip; FH preincubated with or without a 2-fold molar excess of PspCN injected (90 s, 30 μl/min, 400 s dissociation); 1:1 binding model; both purified.

No constants are given. Whether binding was seen depends on the method and setting. Some binding calls cover weakened binding; strength is not graded here.

In the case of “plasma-derived human complement factor H (from UniProt P08603 19-1231)”, the binding entry is “binds weakly”. Consider “recombinant FH(D1119G) (from UniProt P08603 19-1231)”, for which the binding entry is “no binding”.
